The nature of the data set: peptide made by a vendor (Fmoc solid-phase peptide synthesis). The settings on record: whole synthesis.

Plain letter strings leave the end groups untold.

For the sequence DWLKAFYDKVAEKLKEAFPDWAKAAYDKAAEKAKEAA, the “final HPLC purity” value is given as more than 95%.

The record behind these values is US20160074473A1 (Kinemed, Inc., priority 2014, published 2016).
